# Patent US8022051B2, “Composition for protection and improvement of skin, or reinforcing skin barrier function comprising phosphatidylserine” (Doosan Corporation, priority 2004, dated 2011)
# For at least one compound, name, drawing or mass did not settle the structure.
# Key:
# [1] = system: normal human keratinocytes; assay: Differentiation promoting effect in skin keratinocytes (western blot of involucrin and transglutaminase); format: cell-based; conditions: phosphatidylserine 20 and 40 μM, calcium 1.2 mM, clofibrate 200 and 400 μM; 24 hours; FIG. 5
# Protocol: In order to examine a differentiation promoting effect in the skin keratinocytes by the phosphatidylserine of the invention, a following experiment was performed. First, the normal human keratinocytes (a gift from Dong-guk University) cultured in the KSFM (Keratinocyte-SFM; Gibco BRL/Life Technologies, USA) were seeded to the 35 mm^2 cell culture dish in an amount of 1.5×10^5 cells/dish and then cultured for a day. Next day, the culture medium was removed and a new culture medium containing 20 and 40 μM of phosphatidylserine aqueous solution, 1.2 mM calcium aqueous solution and 200 and 400 μM of clofibrate (Sigma, USA) added thereto was added and cultured for 24 hours. Next day, in order to make sure of a differentiation of the keratinocyte, a morphology change of the cell was checked with a phase contrast microscope (Nikon, Japan) and a photograph was taken with a digital camera attached to the microscope. In addition, a western blot was performed to check the protein expression amount of involucrin and transglutaminase, which have been known as a differentiation-marker proteins of the keratinocyte peculiar to the keratin. 500 μl of a lysis buffer having 2% sodium dodecyl sulfate (SDS) added thereto wad added and the cells were collected with a cell scrapper, so that cell lysate only was obtained. […]
# skin = conditions: applied to the skin; Sheu et al., J Invest Dermatol 118, 94-101, 2002; cited from earlier work
# [2] = system: TPA-induced ear inflammation in CD-1 mouse; assay: Alleviation of skin damage (inflammatory response) due to TPA in mouse ear; format: in vivo; conditions: TPA 0.03%; applied 30 μl per cm^2 at 45 minutes and 4 hours after induction; phosphatidylserine 0.5%, clofibrate 1 mM, Wy14643 1 mM; FIG. 2
# Protocol: In order to examine a skin damage (inflammatory response)-alleviating effect of the phosphatidylserine of the invention, which damage results from skin inflammation-inducing material, a following experiment was performed in accordance with a method used by Sheu et. al. (The Journal of Investigate Dermatology, 118, pp 94-101, 2002).
# First, CD-1 mouse (male & female, 6-8 weeks, Charles River, US) was used as an experimental object. TPA (12-0-tetradecanoylphorbol-13-acetate) 0.03% (wt./vol.; in acetone) solution 10 μl, which was skin inflammation-inducing material, was treated to inner and outer parts of both ears of the experimental animal. The ear was thickened due to TPA and there occurred an inflammatory response. Then, clofibrate (1 mM) and Wy14643 (1 mM) as already-known positive control group, which are agonists of PPAR-a, and the 0.5% phosphatidylserine containing aqueous solution used as the Example 1 as an experimental material were applied to both ears in an amount of 30 μl per cm^2 at times of 45 minutes and 4 hours after the inflammation was induced. After that, the treated parts of the ears were subject to a biopsy, and the biopsy parts were fixed to 4% formaldehyde and then subject to Hematoxylene & Eosin (E&H) staining. The tissue slide stained with H&E was magnified to 100 folds to check the inflammation alleviation.
structure (smiles),measurement,setting,value
CCOC(=O)C(C)(C)Oc1ccc(Cl)cc1 [clofibrate],protein expression of involucrin and transglutaminase,[1],increased the expressions of the two proteins
same,inflammation due to the skin stimulating material,skin,decreased
same,inflammation alleviation (H&E stained ear tissue),[2],inflammation was alleviated
